Data taken from doi:10.1101/2022.02.01.475276.
These are yes or no findings as the source states them, for the method shown. In cells and extracts the contact can be indirect. A yes stands for co-enrichment or nearness to the bait. Other partners may have been found.

Protein sequences, listed by entry. Tags and fused reporters are not part of them. Lines headed by an entry give the natural chain unless they say otherwise; changes in a name come on top. Residues count along the entry.
UniProt P81133, whole entry, stated change not applied: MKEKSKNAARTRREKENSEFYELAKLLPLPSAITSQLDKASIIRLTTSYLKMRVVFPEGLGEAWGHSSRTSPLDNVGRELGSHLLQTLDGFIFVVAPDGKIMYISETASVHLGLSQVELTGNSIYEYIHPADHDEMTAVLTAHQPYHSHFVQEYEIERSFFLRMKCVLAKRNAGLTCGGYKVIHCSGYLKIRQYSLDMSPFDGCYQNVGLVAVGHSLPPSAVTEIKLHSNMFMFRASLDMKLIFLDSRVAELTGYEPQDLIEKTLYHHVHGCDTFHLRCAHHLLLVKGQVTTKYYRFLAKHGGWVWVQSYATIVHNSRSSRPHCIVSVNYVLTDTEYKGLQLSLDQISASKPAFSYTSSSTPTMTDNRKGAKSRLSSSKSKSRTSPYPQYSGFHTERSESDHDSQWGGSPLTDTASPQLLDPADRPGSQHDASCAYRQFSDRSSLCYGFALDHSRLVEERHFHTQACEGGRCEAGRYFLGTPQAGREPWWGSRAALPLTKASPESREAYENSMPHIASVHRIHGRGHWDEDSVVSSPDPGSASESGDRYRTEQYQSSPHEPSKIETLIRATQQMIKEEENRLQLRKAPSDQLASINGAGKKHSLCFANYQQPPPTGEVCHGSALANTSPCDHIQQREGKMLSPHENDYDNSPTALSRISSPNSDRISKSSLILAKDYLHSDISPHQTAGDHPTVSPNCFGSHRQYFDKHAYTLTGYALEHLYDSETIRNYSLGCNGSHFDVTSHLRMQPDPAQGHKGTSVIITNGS
UniProt P81133, 1-348, stated change not applied: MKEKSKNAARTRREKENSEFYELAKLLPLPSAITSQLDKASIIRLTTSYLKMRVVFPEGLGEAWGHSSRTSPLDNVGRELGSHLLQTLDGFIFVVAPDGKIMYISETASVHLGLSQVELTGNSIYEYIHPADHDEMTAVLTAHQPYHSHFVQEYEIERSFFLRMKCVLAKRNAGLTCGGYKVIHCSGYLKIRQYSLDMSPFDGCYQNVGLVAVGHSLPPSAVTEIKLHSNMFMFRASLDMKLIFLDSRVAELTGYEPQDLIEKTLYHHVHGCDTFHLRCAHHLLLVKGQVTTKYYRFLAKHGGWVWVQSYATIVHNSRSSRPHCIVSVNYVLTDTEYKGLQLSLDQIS

Experiments:
Experiment in all cases: affinity purification with mass spectrometry
[1] = target: hSim1(R171H).3xFlag2xStrep(1-348) (human) (UniProt P81133)
[2] = target: hSIM1.R171H-2xHA-3xFlag (human) (UniProt P81133)
[3] = target: hSim1.3xFlag2xStrep(1-348) (human) (UniProt P81133)
[4] = target: hSIM1-2xHA-3xFlag (human) (UniProt P81133)

- binding [1]: binds
- binding [2]: binds
- binding [3]: binds
- binding [4]: binds
Substance: HSP90A (endogenous, HEK293T) (from UniProt P07900 1-732)
